PubChem BioAssay AID504804 | Drosophila RNAi Screening Center – 2011

Assay: 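dsRNAs that improve Kc cell survival under doxorubicin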 (primary screen)
Cell system: Drosophila Kc cells
Reagent: long dsRNA against Drosophila genes, 0.5 µg dsRNA per well
Timing: 96 h (48 h knock-down, then 48 h drug)
Challenge: doxorubicin 5 µg/ml for 48 h, added 48 h after dsRNA
Detection: 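Viability measured as cellular ATP by luminescence after 48 h knock-down then 48 h doxorubicin at 5 µg/ml; unnormalised plate counts for each replicate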
Scale: raw ATP luminescence: higher = more viable cells, protection from doxorubicin
Rule for the call: 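z-score of 2 or more over plate mean in both duplicates, retained only when retests and separate dsRNAs confirm the protection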
In all, the deposit lists about 19,000 reagents; this is an unselected part of those that have a named target and a result. Of all reagents, 47 (0.25%) got an active call. 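Signals are raw, not normalised; exact z-scores behind calls not deposited; actives needed confirmation, so some wells reaching 2 SD are inactive.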

After knock-down of CG1677 [DRSC18116] the results were raw ATP luminescence, replicate 1 = 43960; raw ATP luminescence, replicate 2 = 43720; inactive. For Ance [DRSC01865], the entry reads raw ATP luminescence, replicate 1 = 93213; raw ATP luminescence, replicate 2 = 60437; inactive. For sut1 [DRSC07700], the entry reads raw ATP luminescence, replicate 1 = 59057; raw ATP luminescence, replicate 2 = 47210; inactive. Silencing of CG33258 [DRSC09415] came out at: raw ATP luminescence, replicate 1 = 78670; raw ATP luminescence, replicate 2 = 73900; inactive. For CG7458 [DRSC11829] the deposit lists raw ATP luminescence, replicate 1 = 72890; raw ATP luminescence, replicate 2 = 55197; inactive. Silencing of mbc [DRSC16995] resulted in: raw ATP luminescence, replicate 1 = 55410; raw ATP luminescence, replicate 2 = 61230; inactive.

CG32511 (retired record) [DRSC20697] scored raw ATP luminescence, replicate 1 = 1.96e5; raw ATP luminescence, replicate 2 = 2.13e5; inactive. For Ugt304A1 [DRSC15127], the entry reads raw ATP luminescence, replicate 1 = 46467; raw ATP luminescence, replicate 2 = 44237; inactive. Depletion of E(spl)m5-HLH [DRSC16695] resulted in: raw ATP luminescence, replicate 1 = 60020; raw ATP luminescence, replicate 2 = 65860; inactive. Against CG4953 [DRSC02792], the values are raw ATP luminescence, replicate 1 = 92347; raw ATP luminescence, replicate 2 = 57517; inactive. Cdc14 [DRSC03013] scored raw ATP luminescence, replicate 1 = 46670; raw ATP luminescence, replicate 2 = 61393; inactive. Ciz1 [DRSC09675] scored raw ATP luminescence, replicate 1 = 67350; raw ATP luminescence, replicate 2 = 61470; inactive.

For Nost [DRSC18037] the deposit lists raw ATP luminescence, replicate 1 = 35400; raw ATP luminescence, replicate 2 = 31680; inactive. For Nost [DRSC18338], the entry reads raw ATP luminescence, replicate 1 = 33250; raw ATP luminescence, replicate 2 = 28960; inactive. With knock-down of CG31360 [DRSC13255] the results were raw ATP luminescence, replicate 1 = 1.53e5; raw ATP luminescence, replicate 2 = 2.41e5; inactive. Against Sec6 [DRSC06932] the deposit lists raw ATP luminescence, replicate 1 = 73673; raw ATP luminescence, replicate 2 = 76743; inactive. kug [DRSC10911] scored raw ATP luminescence, replicate 1 = 27073; raw ATP luminescence, replicate 2 = 23300; inactive. jv [DRSC08831] gave raw ATP luminescence, replicate 1 = 1.77e5; raw ATP luminescence, replicate 2 = 1.92e5; inactive.

After knock-down of jv [DRSC08832] the results were raw ATP luminescence, replicate 1 = 1.64e5; raw ATP luminescence, replicate 2 = 1.91e5; inactive. Silencing of THG [DRSC01896] came out at: raw ATP luminescence, replicate 1 = 66140; raw ATP luminescence, replicate 2 = 71663; inactive. For Osi3 [DRSC12175], the values are raw ATP luminescence, replicate 1 = 69747; raw ATP luminescence, replicate 2 = 54823; inactive. FucTA [DRSC10733] scored raw ATP luminescence, replicate 1 = 76413; raw ATP luminescence, replicate 2 = 48793; inactive. Silencing of ZnT33D [DRSC02591] resulted in: raw ATP luminescence, replicate 1 = 62823; raw ATP luminescence, replicate 2 = 64683; inactive. CG13594 [DRSC04229] showed raw ATP luminescence, replicate 1 = 32013; raw ATP luminescence, replicate 2 = 33763; inactive.

Laid out differently: 2 of the entries above.
CG1677 [DRSC18116]
- raw ATP luminescence, replicate 1: 43960
- raw ATP luminescence, replicate 2: 43720
- activity call: inactive

Ance [DRSC01865]
- raw ATP luminescence, replicate 1: 93213
- raw ATP luminescence, replicate 2: 60437
- activity call: inactive

The results go on.
After knock-down of CG17191 [DRSC15185] the results were raw ATP luminescence, replicate 1 = 74200; raw ATP luminescence, replicate 2 = 47290; inactive. Depletion of CG11786 [DRSC14389] resulted in: raw ATP luminescence, replicate 1 = 69760; raw ATP luminescence, replicate 2 = 56350; inactive. With knock-down of Marf1 [DRSC03747] the results were raw ATP luminescence, replicate 1 = 45560; raw ATP luminescence, replicate 2 = 38870; inactive. Depletion of Marf1 [DRSC03774] resulted in: raw ATP luminescence, replicate 1 = 64237; raw ATP luminescence, replicate 2 = 61267; inactive. After knock-down of yellow-e2 [DRSC15169] the results were raw ATP luminescence, replicate 1 = 88130; raw ATP luminescence, replicate 2 = 76480; inactive. With knock-down of ppk5 [DRSC11492], the screen gave raw ATP luminescence, replicate 1 = 64303; raw ATP luminescence, replicate 2 = 77780; inactive.

For shg [DRSC04714], the entry reads raw ATP luminescence, replicate 1 = 69843; raw ATP luminescence, replicate 2 = 51163; inactive. psd [DRSC03131] showed raw ATP luminescence, replicate 1 = 21653; raw ATP luminescence, replicate 2 = 40780; inactive. After knock-down of beat-Va [DRSC14192] the results were raw ATP luminescence, replicate 1 = 45080; raw ATP luminescence, replicate 2 = 46573; inactive. Knock-down of CG31642 [DRSC02919] came out at: raw ATP luminescence, replicate 1 = 1.09e5; raw ATP luminescence, replicate 2 = 1.04e5; inactive. Against Ilp3 [DRSC10168] the deposit lists raw ATP luminescence, replicate 1 = 69703; raw ATP luminescence, replicate 2 = 71320; inactive. Depletion of Karybeta3 [DRSC12355] came out at: raw ATP luminescence, replicate 1 = 24407; raw ATP luminescence, replicate 2 = 21180; inactive.
